Measured values as given in US20210147525A1 (University of California, published 2021).
These are yes or no findings as the source states them, for the method shown. Binding can be weak; no strength is given.

molecular target: human PLXDC1 protein, biotinylated (bait of the antibody library screen) (human); assay: antibody library screen on biotinylated PLXDC1 with activating compound

Row | binding | Binder
1 | binds | 8-F11 (antibody, V domains shown) VH: QVQLVQSGAEVKKPGSSVKVSCKASGGTFSNYAINWVRQAPGQGLEWMGRIIPTLGIANYAQKFQGRVTITADESTSTAYMELSSLRSEDTAVYYCARAAYFAGPAARYGYFDIWGQGTLVTVSS VL: EIVLTQSPGTLSLSPGERATLSCRASQSVRSNYLAWYQQKPGQAPRLLIYDASSRATGIPDRFSGSGSGTDFTLTISRLEPEDFAVYYCQQYAYAPWTFGQGTKVEIK
2 | binds | 8-H7 (antibody, V domains shown) VH: EVQLLESGGGLVQPGGSLRLSCAASGFTFSNYAMSWVRQAPGKGLEWVSAIYGSGGRTYYADSVKGRFTISRDNSKNTLYLQMNSLRAEDTAVYYCARLRYGFYQFDYWGQGTLVTVSS VL: DIQMTQSPSSLSASVGDRVTITCRASQSIRNYLNWYEQKPGKAPKLLIYAASSLQSGVPSRFSGSGSGTDFTLTISSLQPEDFATYYCQQSYSYPLTFGQGTKVEIK
3 | binds | 9-H9 (antibody, V domains shown) VH: EVQLLESGGGLVQPGGSLRLSCAASGFTFSNYAMSWVRQAPGKGLEWVSTIYGSGVRTYYADGVKGRFTISRDNSKNTLYLQMNSLRAEDTAVYYCARGWIPHSFYAFDYWGQGTLVTVSS VL: DIQMTQSPSSLSASVGDRVTITCRASQSISSYLNWYQQKPGKAPKLLIYGASSLQSGVPSRFSGSGSGTDFTLTISSLQPEDFATYYCQQSFTAPVTFGQGTKVEIK
4 | binds | 10-A9 (antibody, V domains shown) VH: EVQLLESGGGLVQPGGSLRLSCAASGFTFTNYAMSWVRQAPGKGLEWVSSISGSGISTYYADSVKGRFTISRDNSKNTLYLQMNSLRAEDTAVYYCARGPGPGYWYAFDVWGQGTLVTVSS VL: DIQMTQSPSSLSASVGDRVTITCRASQTISRYLNWYQQKPGKAPKLLIYSASSLQSGVPSRFSGSGSGTDFTLTISSLQPEDFATYYCQQSYTYPITFGQGTKVEIK
5 | binds | 2-C8 (antibody, V domains shown) VH: EVQLLESGGGLVQPGGSLRLSCAASGFTFTNYAMSWVRQAPGKGLEWVSSISGSGISTYYADSVKGRFTISRDNSKNTLYLQMNSLRAEDTAVYYCARGPGPGYWYAFDVWGQGTLVTVSS VL: DIQMTQSPSSLSASVGDRVTITCRASQTISRYLNWYQQKPGKAPKLLIYAASSLQSGVPSRFSGSGSGTDFTLTISSLQPEDFATYYCQQSYTYPITFGQGTKVEIK
6 | binds | 9-E5 (antibody, V domains shown) VH: QVQLVESGGGLVKPGGSLRLSCAASGFTFSNAWMSWVRQAPGKGLEWVGRIKSKIEGGTTDYAPPVKGRFTISRDDSKNTLYLQMNSLKTEDTAVYYCARDPTWYVSGHYYGFDVWGQGTLVTVSS VL: DIQMTQSPSSLSASVGDRVTITCRASQSIANYLNWYQQKPGKAPKLLIYAASSLQSGVPSRFSGSGSGTDFTLTISSLQPEDFATYYCQQYFSTPPTFGQGTKVEIK
7 | binds | 8-D9 (antibody, V domains shown) VH: QVQLVQSGAEVKKPGSSVKVSCKASGGTFSDEAIHWVRQAPGQGLEWMGRIIPVLGIASYAQKFQGRVTITADESTSTAYMELSSLRSEDTAVYYCARGLSRRAFYFDYWGQGTLVTVSS VL: DIQMTQSPSSLSASVGDRVTITCRASQTIGNYLNWYQQKPGKAPKLLIYVASSLQSGVPSRFSGSGSGTDFTLTISSLQPEDFATYYCQQSYRYPYTFGQGTKVEIK
8 | binds | 9-G1 (antibody, V domains shown) VH: EVQLLESGGGLVQPGGSLRLSCAASGFTFGNYAMSWVRQAPGKGLEWVSTISAGGSRTYYADSVKGRFTISRDNSKNTLYLQMNSLRAEDTAVYYCARGWYPILYYAFDYWGQGTLVTVSS VL: DIQMTQSPSSLSASVGDRVTITCRASQSIGNYLNWYQQKPGKAPKLLIYSASSLQSGVPSRFSGSGSGTDFTLTISSLQPEDFATYYCQQTYTIPLTFGQGTKVEIK
9 | binds | 10-C1 (antibody, V domains shown) VH: EVQLLESGGGLVQPGGSLRLSCAASGFTFSNYAMSWVRQAPGKGLEWVSVIYGSGTRTYYADSVKGRFTISRDNSKNTLYLQMNSLRAEDTAVYYCARVASSYHYAFDYWGQGTLVTVSS VL: DIQMTQSPSSLSASVGDRVTITCRASQSISTYLNWYQQKPGKAPKLLIYAASSLQSGVSSRFSGSGSGTDFTLTISSLQPEDFATYYCQQSYTFPLTFGQGTKVEIK
10 | binds | 9-G3 (antibody, V domains shown) VH: EVQLLESGGGLVQPGGSLRLSCAASGFTFSSYAMSWVRQAPGKGLEWVSTIYRSGGRTYYADSVKGRFTISRDNSKNTLYLQMNSLRAEDTAVYYCARGAYPLGSYYGFDPWGQGTLVTVSS VL: DIQMTQSPSSLSASVGDRVTITCRASQSIATYLNWYQQKPGKAPKLLIYAASSLQSGVPSRFSGSGSGTDFTLTISSLQPEDFATYYCQQSYTYPVTFGQGTKVEIK
11 | binds | 10-E7 (antibody, V domains shown) VH: EVQLLESGGGLVQPGGSLRLSCAASGFTFTDYAMSWVRQAPGKGLEWVSVIYGSGGRTYYADSVKGRFTISRDNSKNTLYLQMNSLRAEDTAVYYCARVEDSHYSFDVWGQGTLVTVSS VL: DIQMTQSPSSLSASVGDRVTITCRASQSISNYLNWYQQKPGKAPKLLIYAASSLQSGVPSRFSGSGSGTDFTLTISSLQPEDFATYYCQQSYTVPWTFGQGTKVEIK
12 | binds | 10-E6 (antibody, V domains shown) VH: EVQLLESGGGLVQPGGSLRLSCAASGFTFSSYAMSWVRQAPGKGLEWVSAIYGSGGDTYYADSVKGRFTISRDNSKNTLYLQMNSLRAEDTAVYYCARTEYDGYFDVWGQGTLVTVSS VL: DIQMTQSPSSLSASVGDRVTITCRASQDIYNYLNWYQQKPGKAPKLLIYGASSLQSGVPSRFSGSGSGTDFTLTISSLQPEDFATYYCQQSDGFPPTFGQGTKVEIK
13 | binds | 10-C9 (antibody, V domains shown) VH: EVQLLESGGGLVQPGGSLRLSCAASGFTFSNYAMSWVRQAPGKGLEWVSAIYGSGGRTYYADSVKGRFTISRDNSKNTLYLQMNSLRAEDTAVYYCARLEAGFYSLDIWGQGTLVTVSS VL: DIQMTQSPSSLSASVGDRVTITCRASQTIGTYLNWYQQKPGKAPKLLIYAASSLQSGVPSRFSGSGSGTDFTLTISSLQPEDFATYYCQQSYSYPLTFGQGTKVEIK
14 | binds | 10-C3 (antibody, V domains shown) VH: EVQLLESGGGLVQPGGSLRLSCAASGFTFSNYAMSWVRQAPGKGLEWVSVIYGSGGRTYYADSVKGRFTISRDNSKNTLYLQMNSLRAEDTAVYYCARVEDTSYYGMDYWGQGTLVTVSS VL: DIQMTQSPSSLSASVGDRVTITCRASQTIGIYLNWYQQKPGKAPTLLIYAASSLQSGVPSRFSGSGSGTDFTLTISSLQPEDFATYYCQQSYTYPLTFGQGTKVEIK
15 | binds | 9-B3 (antibody, V domains shown) VH: QVQLVESGGGVVQPGRSLRLSCAASGFTFSDYGMHWVRQAPGKGLEWVAVISYDGSRKYYANSVKGRFTISRDNSKNTLYLQMNSLRAEDTAVYYCARGSYSDGFDVWGQGTLVTVSS VL: DIQMTQSPSSLSASVGDRMTITCRASQSISNYLNWYQQKPGKAPKLLIYAASSLQSGVPSRFSGSGSGTDFTLTISSLQPEDFATYYCQQSYAPPYTFGQGTKVEIK
16 | binds | 10-B5 (antibody, V domains shown) VH: EVQLLESGGGLVQPGGSLRLSCAASGFTFSSYAMSWVRQAPGKGLEWVSAIYGAGGKTYYADSVKGRFTISRDNSKNTLYLQMNSLRAEDTAVYYCARISHGWGFDVWGQGTLVTVSS VL: DIQMTQSPSSLSASVGDRVTITCRASQDISNYLNWYQQKPGKAPKLLIYAASSLQSGVPSRFSGSGSGTDFTLTISSLQPEDFATYYCQQSYTYPLTFGQGTKVEIK
17 | binds | 8-F6 (antibody, V domains shown) VH: EVQLLESGGGLVQPGGSLRLSCAASGFTFSSYAMSWVRQAPGKGLEWVSVISGSGGNTYYADSVKGRFTISRDNSKNTLYLQMNSLRAEDTAVYYCAREVRHDSYYYYYYSGMDVWGQGTLVTVSS VL: EIVMTQSPATLSVSPGERATLSCRASQSVYNNLAWYQQKPGQAPRLLIYDASTRATGIPARFSGSGSGTEFTLTISSLQSEDFAVYYCQQYSDYPFTFGQGTKVEIK
18 | binds | 9-C2 (antibody, V domains shown) VH: EVQLLESGGGLVQPGGSLRLSCAASGFTFSSYAMSWVRQAPGKGLEWVSVISGSGGNTYYADSVKGRFTISRDNSKNTLYLQMNSLRAEDTAVYYCAREVRHDSYYYYYYSGMDVWGQGTLVTVSS VL: EIVMTQSPATLSVSPGERATLSCRASQSVYNNLAWYQQKPGQAPRLLIYDASTRATGIPARFSGSGSGTEFTLTISSLQSEDFAVYYCQQYSDYPFTFGQGTKVEIK
19 | binds | 9-E4 (antibody, V domains shown) VH: EVQLLESGGGLVQPGGSLRLSCAASGFTFSSYAMSWVRQAPGKGLEWVSVISGSGGNTYYADSVKGRFTISRDNSKNTLYLQMNSLRAEDTAVYYCAREVRHDSYYYYYYSGMDVWGQGTLVTVSS VL: EIVMTQSPATLSVSPGERATLSCRASQSVYNNLAWYQQKPGQAPRLLIYDASTRATGIPARFSGSGSGTEFTLTISSLQSEDFAVYYCQQYSDYPFTFGQGTKVEIK
20 | binds | 10-F12 (antibody, V domains shown) VH: EVQLLESGGGLVQPGGSLRLSCAASGFTFSNYAMSWVRQAPGKGLEWVSAIKGSGGGTYYADSVKGRFTISRDNSKNTLYLQMNSLRAEDTAVYYCARGGYLWLDPWGQGTLVTVSS VL: EIVMTQSPATLSVSPGERATLSCRASQSISSNLAWYQQKPGQAPRLLIYDASTRATGIPARFSGSGSGTEFTLTISSLQSEDFAVYYCQQYYNWPLTFGQGTKVEIK
21 | binds | 9-B10 (antibody, V domains shown) VH: EVQLLESGGGLVQPGGSLRLSCAASGFTFSSYAMSWVRQAPGKGLEWVSGISESGGGTYYADSVKGRFTISRDNSKNTLYLQMNSLRAEDTAVYYCARLVPWQLAFDVWGQGTLVTVSS VL: EIVMTQSPATLSVSPGERATLSCRASQSVYNNLAWYQQKPGQAPRLLIYDASTRATGIPARFSGSGSGTEFTLTISSLQSEDFAVYYCQQYYYWPITFGQGTKVEIK
22 | binds | 9-D8 (antibody, V domains shown) VH: QVQLVQSGAEVKKPGSSVKVSCKASGGTFSSEAISWVRQAPGQGLEWMGRIIPISGRPNYAQKFQGRVTITADESTSTAYMELSSLRSEDTAVYYCAREASYYVAGYYRYYGFDVWGQGTLVTVSS VL: EIVMTQSPATLSVSPGERATLSCRASRSLSNNLAWYQQKPGQAPRLLIYDASTRATGIPARFSGSGSGTEFTLTISSLQSEDFAVYYCQQYNAWPYTFGQGTKVEIK
